Source: paper PMC11633528

Molecular target: T1, HCP5‐132aa N‐terminal region (1‐66aa), Flag‐tagged truncation mutant (human) (UniProt Q6MZN7)
T1 sequence: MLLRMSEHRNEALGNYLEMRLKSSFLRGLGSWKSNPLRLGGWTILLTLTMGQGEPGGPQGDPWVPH
Assay: co-IP; series of truncated forms of ELAVL1 with HCP5‐132aa; cells not given

binding: binds
Substance: RRM2 domain of ELAVL1 (truncated form) (domain or fragment)

Results are given in words; binding and its absence hold for the method and conditions named. Binding seen in cells or lysates may run through a third protein. Binding calls can cover weak binding; strength is not graded here. Sequences can lack the tags named with a protein.
